Data reported in PubChem BioAssay AID2283123 (EPA ToxCast).
Inconclusive means that the source gave no clear call. Such entries were picked first, then a sample of the others. Where the call is inconclusive, the potency comes from a doubtful curve fit. The source made the active and inactive calls. Rule for the calls: active = hit-call score of the fitted dose curve at least 0.9, where 1 is the maximum; inconclusive = response in the unintended direction; inactive = score below 0.9.

By UniProt entry, the sequences of proteins in these tests, tags left out. Where a name states a change or a piece, a line headed by the entry shows the natural chain unless it says otherwise.
UniProt P05182: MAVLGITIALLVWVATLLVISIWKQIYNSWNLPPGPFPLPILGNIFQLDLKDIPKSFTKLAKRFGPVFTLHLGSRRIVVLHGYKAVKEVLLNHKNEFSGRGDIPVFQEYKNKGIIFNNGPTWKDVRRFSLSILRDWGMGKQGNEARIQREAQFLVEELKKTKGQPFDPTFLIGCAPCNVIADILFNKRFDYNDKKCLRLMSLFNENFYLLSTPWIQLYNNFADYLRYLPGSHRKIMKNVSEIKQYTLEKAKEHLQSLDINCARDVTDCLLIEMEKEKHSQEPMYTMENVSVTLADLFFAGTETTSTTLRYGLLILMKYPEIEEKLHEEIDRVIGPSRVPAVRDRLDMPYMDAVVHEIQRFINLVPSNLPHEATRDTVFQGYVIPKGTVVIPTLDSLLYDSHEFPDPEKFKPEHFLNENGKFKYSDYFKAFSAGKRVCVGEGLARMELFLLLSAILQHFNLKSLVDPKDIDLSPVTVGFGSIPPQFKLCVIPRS

The compounds below were run against rat CYP2E1, Cyp2e1 (gene 25086) (UniProt P05182) (assay: NVS_ADME_rCYP2E1: NovaScreen (NVS) CYP450-related Enzyme Activity (ADME) Assay for rat CYP2E1).
Procedure: NVS_ADME_rCYP2E1 is a biochemical, single-readout assay that uses extracted gene-proteins in a cell-free assay. Measurements were taken 1 hour after chemical dosing in a 96-well plate.NVS_ADME_rCYP2E1 is one of one assay component(s) measured or calculated from the NVS_ADME_rCYP2E1 assay. It is designed to make measurements of enzyme activity, a form of enzyme reporter, as detected with fluorescence intensity signals by Fluorescence technology.Data from the assay component NVS_ADME_rCYP2E1 was analyzed into 1 assay endpoint. This assay endpoint, NVS_ADME_rCYP2E1, was analyzed in the positive analysis fitting direction relative to Acetonitrile as the negative control and baseline of activity. Using a type of enzyme reporter, loss-of-signal activity can be used to understand changes in the enzymatic activity as they relate to the gene Cyp2e1. Furthermore, this assay endpoint can be referred to as a primary readout, because this assay has produced multiple assay endpoints where this one serves a enzymatic activity function. To generalize the intended target to other relatable targets, this assay endpoint is annotated to the cyp intended target family, where the subfamily is xenobiotic metabolism.
Binding assays used specific radioligands (tritiated, iodinated) with non-radioactive competitive displacement ligands in agonist or antagonist protocols (as indicated) and various reference compounds and inhibitors to titrate specific binding to receptors and transporters. Most enzyme assays (CYPs, kinases, phosphatases, proteases, HDACs) used recombinant protein and specific substrates (fluorescence mostly, some colorimetric and radioactive) and inhibitors, followed by a biochemical separation of substrate and product. All assays for the biochemical HTS were initially run in duplicate at a single concentration (10 uM for CYP450 assays and 25 uM for all others). […]
In the case of `CC(C)C1(C)N=C(c2ncccc2C(=O)O)NC1=O` (stereo not drawn), the AC50 is reported as inconclusive: 10 µM. `C[Si](Cn1cncn1)(c1ccc(F)cc1)c1ccc(F)cc1` was tested, and the AC50 was active: 10 µM. `S=C1NCCN1` was tested, and the outcome was “inactive”.
